Data: patent US20030219894A1, “Induction of insulin-producing cells” (JCR Pharmaceuticals Co., Ltd., priority 2002, published 2003)
At least one compound was matched to its structure with a doubt left.

Test system: mouse fetal hepatocytes
Assay: RT-PCR analysis of insulin 1 and 2 gene expression in cultured fetal hepatocytes with medium supplements
Assay type: cell-based
Conditions: supplement separately added to DMEM/F12 containing 10% FBS
Protocol: For preparing fetal hepatocytes, the liver of fetal ICR mice (embryonic day 13.5) was excised and treated with 0.1% trypsin-phosphate-buffered saline for 5 min at 37° C. A culture medium solution then was added, and the mixture was filtered through a nylon membrane (#200). The cell suspension thus obtained was centrifuged at 50 g for 5 min. The cell pellet was suspended in a medium consisting of 1:1 DMEM/F12 (Sigma D6421) supplemented with 10% fetal bovine serum, L-glutamine (2 mmol/L), β-mercaptoethanol (β-ME), (50 μmol/L), penicillin (100,000 U/L) and streptomycin (100 mg/L). The formula of the 1:1 DMEM/F12 (Dulbecco's Modified Eagle's Medium/Ham's Nutrient Mixture F-12: Sigma D6421) was as follows (in g/L): Ca2Cl2/2H2O (0.1545), CuSO4/5H2O (0.0000013), Fe(NO3)3/9H2O (0.00005). […]
Both insulin 1 and 2 genes were clearly expressed under the culture conditions used, as determined by RT-PCR analysis. […] Each of these supplements was separately added to the DMEM/F12 containing 10% FBS, and effects on insulin expression was evaluated in thus formed different media. […]

C[C@@H]1C[C@H]2[C@@H]3CCC4=CC(=O)C=C[C@]4(C)[C@@]3(F)[C@@H](O)C[C@]2(C)[C@@]1(O)C(=O)CO [dexamethasone]
induction of insulin 1 and 2 gene expression: either had no effect or had only a marginal effect
